These are yes or no findings as the source states them, for the method shown. In cells and extracts the contact can be indirect. Some binding calls cover weakened binding; strength is not graded here. Sequences can lack the tags named with a protein.

Sequences of proteins named here, by UniProt entry; tags and fusion partners are left off.
UniProt P18248: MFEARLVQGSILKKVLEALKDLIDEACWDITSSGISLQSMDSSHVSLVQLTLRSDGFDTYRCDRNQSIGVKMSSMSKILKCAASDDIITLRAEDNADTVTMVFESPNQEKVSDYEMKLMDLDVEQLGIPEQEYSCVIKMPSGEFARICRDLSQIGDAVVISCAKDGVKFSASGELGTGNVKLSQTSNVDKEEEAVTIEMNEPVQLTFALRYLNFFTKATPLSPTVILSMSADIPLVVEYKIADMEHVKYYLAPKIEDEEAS

The target of test [1] is WT His-tagged PCNA (recombinant Xenopus PCNA) (Xenopus) (UniProt P18248). Put plainly: GST pulldown with purified proteins in interaction buffer, immunoblot.
Test [2] has as its target PCNA, endogenous, in Xenopus egg extract (HSS) (Xenopus) (UniProt P18248). Put plainly: GST pulldown from Xenopus HSS, immunoblot. A general note: A western blot detects proteins with antibodies after separation by electrophoresis.

B1: GST-APE2 (recombinant GST-tagged Xenopus APE2) (enzyme, Xenopus laevis, UniProt Q6DDT4 1-517, looked up, not shown: a dimerising Fc or GST)
chain: MKIVSWNINGIRATRVGLKETLDSLDADIICLQETKVTRDLLDEPSAIVEGYNSYFSFSRVRSGYSGVATFCKSSTTPQAAEEGLSGVFCNRTGSVGCYGNTEQFLEEELQSLDQEGRAVLTQHRILNCEDKEETLTVINVYCPRADPEKPERKTYKLRFYHLLQTRAEAILQNGGHVIILGDVNTSHRPLDHCDPTDLETFEENPGRQWLNQFLGDPIPSQKGDSETVMPPSAGSGLFYDSFRYFHPTQKNAFTCWCSASGARQTNYGTRIDYILGNRELVESEFLDSVIMPEVEGSDHCPVKAFMKCQPIAANKCPPLCTKYLPEFAGRQQKLLQFLVKKENTLGNTTEESSELTGTPSFTEGADISTVRKRPSDKLNSTSKKKSKIVTKNGQGNLLSFFKPERQKLTMATECNPIEVPICKKEKTVQKDLQPATPAVKYNKPQTAFWKSLLKGPPPPPNCKGHSEPCVLRTVKKAGPNCGRQFYVCARPEGHSSNPQARCNFFLWLTKKAGCED
For the molecule B1, the binding entry in test [1] and in test [2] was “binds” throughout.

The values above are taken from patent US20200017862A1.
